No constants are given. Whether binding was seen depends on the method and setting. Binding seen in cells or lysates may run through a third protein. A yes stands for co-enrichment or nearness to the bait. Other partners may have been found.
target: Aurora kinase A (human (endogenous in HeLa and A549)) (UniProt O14965); experiment: affinity purification with mass spectrometry; AURKA antibody IP from lysate of HeLa cells synchronized in prometaphase (4 mg), protein A/G magnetic beads, rabbit IgG as control; beads split, untreated or RNase cocktail (RNase A, I, III, H, T1) 1 h at 4 °C; washes 150 mM then 300 mM KCl, 0.5% NP-40; LC-MS/MS

Sequences of proteins named here, by UniProt entry; tags and fusion partners are left off.
UniProt O14965: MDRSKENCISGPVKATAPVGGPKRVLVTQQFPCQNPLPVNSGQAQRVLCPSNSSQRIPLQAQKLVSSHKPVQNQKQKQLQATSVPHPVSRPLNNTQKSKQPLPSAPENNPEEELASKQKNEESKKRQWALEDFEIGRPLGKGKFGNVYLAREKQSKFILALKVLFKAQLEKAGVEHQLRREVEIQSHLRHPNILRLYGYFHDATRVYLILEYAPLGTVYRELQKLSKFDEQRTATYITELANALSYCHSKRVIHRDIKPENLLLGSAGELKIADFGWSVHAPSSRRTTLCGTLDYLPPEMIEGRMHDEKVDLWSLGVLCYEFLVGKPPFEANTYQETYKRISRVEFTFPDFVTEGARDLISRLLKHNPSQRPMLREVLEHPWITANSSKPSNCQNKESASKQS
UniProt Q7Z460: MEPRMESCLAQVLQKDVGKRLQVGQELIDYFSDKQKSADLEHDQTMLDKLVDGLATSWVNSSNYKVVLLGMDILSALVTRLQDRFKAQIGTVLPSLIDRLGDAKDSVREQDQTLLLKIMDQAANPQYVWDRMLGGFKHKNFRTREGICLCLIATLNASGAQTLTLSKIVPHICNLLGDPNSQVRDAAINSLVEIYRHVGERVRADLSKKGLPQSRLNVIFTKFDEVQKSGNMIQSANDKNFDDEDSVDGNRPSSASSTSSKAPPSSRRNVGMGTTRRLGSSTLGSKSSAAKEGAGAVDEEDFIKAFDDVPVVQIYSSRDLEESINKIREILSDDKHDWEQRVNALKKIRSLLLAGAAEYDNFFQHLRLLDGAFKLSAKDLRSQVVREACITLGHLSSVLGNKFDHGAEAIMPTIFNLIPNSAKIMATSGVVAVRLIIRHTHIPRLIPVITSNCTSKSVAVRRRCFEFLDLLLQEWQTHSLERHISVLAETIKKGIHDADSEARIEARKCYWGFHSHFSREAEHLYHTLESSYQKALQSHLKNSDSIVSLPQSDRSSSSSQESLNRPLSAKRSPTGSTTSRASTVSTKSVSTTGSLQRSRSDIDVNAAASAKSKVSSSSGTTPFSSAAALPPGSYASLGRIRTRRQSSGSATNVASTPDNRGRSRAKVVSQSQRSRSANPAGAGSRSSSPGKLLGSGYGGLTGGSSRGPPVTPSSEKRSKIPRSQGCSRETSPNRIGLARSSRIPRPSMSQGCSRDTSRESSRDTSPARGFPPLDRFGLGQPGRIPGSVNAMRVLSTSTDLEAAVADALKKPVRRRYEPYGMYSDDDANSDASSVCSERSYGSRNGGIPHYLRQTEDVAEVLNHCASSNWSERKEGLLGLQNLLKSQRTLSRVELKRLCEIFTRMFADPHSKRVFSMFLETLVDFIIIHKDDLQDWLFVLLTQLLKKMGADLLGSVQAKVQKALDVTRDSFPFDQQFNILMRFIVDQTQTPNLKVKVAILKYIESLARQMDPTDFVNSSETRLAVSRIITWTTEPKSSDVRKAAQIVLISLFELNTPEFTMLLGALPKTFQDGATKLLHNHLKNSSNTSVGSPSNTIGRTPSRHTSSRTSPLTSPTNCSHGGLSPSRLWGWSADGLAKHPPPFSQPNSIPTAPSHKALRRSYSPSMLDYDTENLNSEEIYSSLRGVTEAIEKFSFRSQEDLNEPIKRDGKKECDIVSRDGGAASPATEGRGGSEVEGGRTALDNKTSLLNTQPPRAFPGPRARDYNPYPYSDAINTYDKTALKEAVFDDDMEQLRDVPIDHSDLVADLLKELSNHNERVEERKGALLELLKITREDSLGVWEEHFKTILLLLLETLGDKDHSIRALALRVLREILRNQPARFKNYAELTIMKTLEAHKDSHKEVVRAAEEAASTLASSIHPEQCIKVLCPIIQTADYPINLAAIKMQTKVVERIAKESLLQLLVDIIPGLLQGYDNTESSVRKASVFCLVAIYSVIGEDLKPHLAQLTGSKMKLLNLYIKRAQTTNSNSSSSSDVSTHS

binding | Molecule
binds | CLASP1 (from UniProt Q7Z460 1-1538)
binds | NOL6 (protein, UniProt Q9H6R4 1-1146) MGPAPAGEQLRGATGEPEVMEPALEGTGKEGKKASSRKRTLAEPPAKGLLQPVKLSRAELYKEPTNEELNRLRETEILFHSSLLRLQVEELLKEVRLSEKKKDRIDAFLREVNQRVVRVPSVPETELTDQAWLPAGVRVPLHQVPYAVKGCFRFLPPAQVTVVGSYLLGTCIRPDINVDVALTMPREILQDKDGLNQRYFRKRALYLAHLAHHLAQDPLFGSVCFSYTNGCHLKPSLLLRPRGKDERLVTVRLHPCPPPDFFRPCRLLPTKNNVRSAWYRGQSPAGDGSPEPPTPRYNTWVLQDTVLESHLQLLSTILSSAQGLKDGVALLKVWLRQRELDKGQGGFTGFLVSMLVVFLVSTRKIHTTMSGYQVLRSVLQFLATTDLTVNGISLCLSSDPSLPALADFHQAFSVVFLDSSGHLNLCADVTASTYHQVQHEARLSMMLLDSRADDGFHLLLMTPKPMIRAFDHVLHLRPLSRLQAACHRLKLWPELQDNGGDYVSAALGPLTTLLEQGLGARLNLLAHSRPPVPEWDISQDPPKHKDSGTLTLGLLLRPEGLTSVLELGPEADQPEAAKFRQFWGSRSELRRFQDGAIREAVVWEAASMSQKRLIPHQVVTHLLALHADIPETCVHYVGGPLDALIQGLKETSSTGEEALVAAVRCYDDLSRLLWGLEGLPLTVSAVQGAHPVLRYTEVFPPTPVRPAFSFYETLRERSSLLPRLDKPCPAYVEPMTVVCHLEGSGQWPQDAEAVQRVRAAFQLRLAELLTQQHGLQCRATATHTDVLKDGFVFRIRVAYQREPQILKEVQSPEGMISLRDTAASLRLERDTRQLPLLTSALHGLQQQHPAFSGVARLAKRWVRAQLLGEGFADESLDLVAAALFLHPEPFTPPSSPQVGFLRFLFLVSTFDWKNNPLFVNLNNELTVEEQVEIRSGFLAARAQLPVMVIVTPQDRKNSVWTQDGPSAQILQQLVVLAAEALPMLEKQLMDPRGPGDIRTVFRPPLDIYDVLIRLSPRHIPRHRQAVDSPAASFCRGLLSQPGPSSLMPVLGYDPPQLYLTQLREAFGDLALFFYDQHGGEVIGVLWKPTSFQPQPFKASSTKGRMVMSRGGELVMVPNVEAILEDFAVLGEGLVQTVEARSERWTV
binds | CLASP2 (protein, UniProt O75122 1-1294) MAMGDDKSFDDEESVDGNRPSSAASAFKVPAPKTSGNPANSARKPGSAGGPKVGGASKEGGAGAVDEDDFIKAFTDVPSIQIYSSRELEETLNKIREILSDDKHDWDQRANALKKIRSLLVAGAAQYDCFFQHLRLLDGALKLSAKDLRSQVVREACITVAHLSTVLGNKFDHGAEAIVPTLFNLVPNSAKVMATSGCAAIRFIIRHTHVPRLIPLITSNCTSKSVPVRRRSFEFLDLLLQEWQTHSLERHAAVLVETIKKGIHDADAEARVEARKTYMGLRNHFPGEAETLYNSLEPSYQKSLQTYLKSSGSVASLPQSDRSSSSSQESLNRPFSSKWSTANPSTVAGRVSAGSSKASSLPGSLQRSRSDIDVNAAAGAKAHHAAGQSVRSGRLGAGALNAGSYASLEDTSDKLDGTASEDGRVRAKLSAPLAGMGNAKADSRGRSRTKMVSQSQPGSRSGSPGRVLTTTALSTVSSGVQRVLVNSASAQKRSKIPRSQGCSREASPSRLSVARSSRIPRPSVSQGCSREASRESSRDTSPVRSFQPLASRHHSRSTGALYAPEVYGASGPGYGISQSSRLSSSVSAMRVLNTGSDVEEAVADALKKPARRRYESYGMHSDDDANSDASSACSERSYSSRNGSIPTYMRQTEDVAEVLNRCASSNWSERKEGLLGLQNLLKNQRTLSRVELKRLCEIFTRMFADPHGKRVFSMFLETLVDFIQVHKDDLQDWLFVLLTQLLKKMGADLLGSVQAKVQKALDVTRESFPNDLQFNILMRFTVDQTQTPSLKVKVAILKYIETLAKQMDPGDFINSSETRLAVSRVITWTTEPKSSDVRKAAQSVLISLFELNTPEFTMLLGALPKTFQDGATKLLHNHLRNTGNGTQSSMGSPLTRPTPRSPANWSSPLTSPTNTSQNTLSPSAFDYDTENMNSEDIYSSLRGVTEAIQNFSFRSQEDMNEPLKRDSKKDDGDSMCGGPGMSDPRAGGDATDSSQTALDNKASLLHSMPTHSSPRSRDYNPYNYSDSISPFNKSALKEAMFDDDADQFPDDLSLDHSDLVAELLKELSNHNERVEERKIALYELMKLTQEESFSVWDEHFKTILLLLLETLGDKEPTIRALALKVLREILRHQPARFKNYAELTVMKTLEAHKDPHKEVVRSAEEAASVLATSISPEQCIKVLCPIIQTADYPINLAAIKMQTKVIERVSKETLNLLLPEIMPGLIQGYDNSESSVRKACVFCLVAVHAVIGDELKPHLSQLTGSKMKLLNLYIKRAQTGSGGADPTTDVSGQS
binds | RHAMM (protein, UniProt O75330 1-724) MSFPKAPLKRFNDPSGCAPSPGAYDVKTLEVLKGPVSFQKSQRFKQQKESKQNLNVDKDTTLPASARKVKSSESKESQKNDKDLKILEKEIRVLLQERGAQDRRIQDLETELEKMEARLNAALREKTSLSANNATLEKQLIELTRTNELLKSKFSENGNQKNLRILSLELMKLRNKRETKMRGMMAKQEGMEMKLQVTQRSLEESQGKIAQLEGKLVSIEKEKIDEKSETEKLLEYIEEISCASDQVEKYKLDIAQLEENLKEKNDEILSLKQSLEENIVILSKQVEDLNVKCQLLEKEKEDHVNRNREHNENLNAEMQNLKQKFILEQQEREKLQQKELQIDSLLQQEKELSSSLHQKLCSFQEEMVKEKNLFEEELKQTLDELDKLQQKEEQAERLVKQLEEEAKSRAEELKLLEEKLKGKEAELEKSSAAHTQATLLLQEKYDSMVQSLEDVTAQFESYKALTASEIEDLKLENSSLQEKAAKAGKNAEDVQHQILATESSNQEYVRMLLDLQTKSALKETEIKEITVSFLQKITDLQNQLKQQEEDFRKQLEDEEGRKAEKENTTAELTEEINKWRLLYEELYNKTKPFQLQLDAFEVEKQALLNEHGAAQEQLNKIRDSYAKLLGHQNLKQKIKHVVKLKDENSQLKSEVSKLRCQLAKKKQSETKLQEELNKVLGIKHFDPSKAFHHESKENFALKTPLKEGNTNCYRAPMECQESWK

From PMC11890761
